In all, about 53,000 sequences went through this assay and about 3,700 (7%) were called active.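 How the source made its calls: active means gene knockdowns whose robust z-score for IL-1 alpha signal is at least 2 or at most -2, so actives lie on both sides; inactive means the rest.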 This is one part of the list.

The text below walks through data of PubChem BioAssay AID1508600 (Functional Genomics Laboratory (NCATS/FGL), 2020).

The assay is described as follows: Components of the Cytosolic LPS Sensing Pathway: Gene Identification via Genome-wide siRNA Screen.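 Further: robust z of the log signal after scaling to non-targeting control siRNA wells of the plate.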 Conditions: RAW264.7 macrophages, IL-1a HTRF, actives lie on both sides, screened at 100 nM (by protocol), cells primed 5 h with Pam3CSK4 first. In a few lines:
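Knockdown: 100 nM siRNA, 48h, RAW264.7. Stimulation: Pam3CSK4 5 h, then LipidA via TransIT-TKO 24 h. Output: supernatant IL-1a HTRF, negative-control-normalized, log robust z-score; viability by CellTiter-Glo.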
A general note: Time-resolved FRET reads energy transfer from a long-lived donor to a nearby acceptor.
For the sequence CGGAUUCAUUCGGAUGUGCTT against Rln1, the z-score was inactive: -0.308.

For GGUCAGCAAAGAAAUCUUCTT against Exosc5, the z-score was inactive: -0.354.

In the case of GGAAUAACAGCCUUGUAUUTT against Slc25a15, the z-score was inactive: -0.145.

In the case of GGCCAGCAAUAAAACUGUCTT against Max, the z-score was inactive: -0.326.

Consider CCAGGUCUUAAUUACAGAGTT against Capza1, for which the z-score is inactive: -0.0949.

Turning to GGCCUGCUACUUUUGAUGCTT against Olfr166, the z-score was inactive: 0.0524.

For the sequence GGUGAAAUGUCUUAUAACATT against Efcab1, the z-score was inactive: 0.52.

Consider GGAAGUUCGUGGAAGGCAATT against Pck1, for which the z-score was inactive: 0.188.

Consider “GGAAGAUGCCUACUUCAGATT against 4632433K11Rik”, for which the z-score was active: 2.5.

Take GGCAGCAGUUAAUUUACUUTT against Mmp21: the z-score is inactive: -1.71.

As for “GCGUAUGCCAAGGAACUCATT against 1110051M20Rik”, the z-score was inactive: 0.7.

Regarding GGAUUCACUGUUUUAUUCUTT against Fap, the z-score is inactive: 0.282.

GCCUGGUGGAAUAAGAAUUTT against Derl2: the z-score is inactive: 0.023.

With CCGAUUGUAUUUCUAUAAGTT against Klf2, the z-score is inactive: 0.571.

For the sequence GGCUUUGUUGACCACUCAGTT against Ndst2, the z-score was inactive: -1.33.

CGGAUUCUAAAUGCUGUAATT against Aox3: the z-score is inactive: 0.382.

For GGACUUGGAGCUGAAAUUGTT against Sae1, the z-score is inactive: -0.0224.

In the case of GGCAGCUCAGGAAAAUAAATT against Htr4, the z-score is inactive: -0.862.

Regarding GCUAAUAAAGCAUUCAGCATT against Bivm, the z-score is inactive: -1.31.

In the case of GGCAACCAGUCUCAUCAAUTT against Scgb1b27, the z-score was inactive: -0.927.

With GGUGCUAAAGGACAUAGGUTT against Tmem177, the z-score is active: 3.27.

Take GGAUGAAGAGAAAGAGGAATT against Zfpm1: the z-score is inactive: 0.436.

In the case of GGAACUGAGUAGUCUGAAGTT against Ap4e1, the z-score is inactive: 0.523.

Consider “GGACUGAAGCUGAAUUCCUTT against 0610012G03Rik”, for which the z-score is inactive: -1.77.

On to GGCUAACAUGGUUUUAUAUTT against Cldn1, for which the z-score is inactive: -0.356.

On to GCUCUACGUUGAAGAGCGATT against Mad2l2, for which the z-score is inactive: -0.232.

With CCAAACCCAGUUGCAUUUGTT against Slitrk5, the z-score is inactive: 0.499.

Turning to GCUUAUUCGGGAUAAAGUATT against Elavl1, the z-score was inactive: 0.101.

For GCUAGCGGCAGUAUUCUGUTT against Rab7, the z-score is inactive: 0.45.

For GCUCUAUUUUUUCAUCUCCTT against Olfr1415, the z-score is inactive: -1.03.

For CCAGAGUUUUCGAGGCCAATT against Olfr1349, the z-score is inactive: 0.127.

On to GGCCUUUAGCACCUACAGCTT against Olfr952, for which the z-score was inactive: -0.198.

On to CGGUAUAUAGAUCACUUCUTT against Olfr56, for which the z-score is inactive: 0.276.

Take GCAUCGAUGGACUCUUUAUTT against Fbxo40: the z-score is inactive: -1.97.

Turning to CGCAUGUUCAUAGGACUGCTT against Olfr1420, the z-score is inactive: 0.453.

GCUGAAAAUUCCUUCCCGATT against Aff4: the z-score is inactive: -1.54.

Regarding GGCUAAAGACCAGUAUUUGTT against Cdh7, the z-score was active: 2.47.

For GGAAUCAAAGGAACAGAGATT against Dscaml1, the z-score is inactive: -0.0266.

For the sequence GGAUGAGCUAAUAGCUAAGTT against Mettl14, the z-score is inactive: 1.14.

On to GCUAAAUCAGCGUAUGAUGTT against Ces4a, for which the z-score was inactive: 0.512.

GGAUGACUGGAACUUCCUCTT against Kcnk1: the z-score is inactive: -1.26.

For CCUCAUCGAAUUCGAUACCTT against Arrb2, the z-score was inactive: -0.181.

On to GCCAUCGUGAGAAGACUUCTT against Nt5c3, for which the z-score was inactive: -0.227.

On to CUACCUACUCCAUGUGGUGTT against Gpihbp1, for which the z-score is inactive: -0.55.

In the case of GGCUCUAUAUCUAUACUGATT against Srst, the z-score is inactive: -1.

For GGAUAUCCUUACAAGGACCTT against Tmco3, the z-score was inactive: -0.646.

Take GCCCAUGACAUUCUCCAUUTT against Cdh17: the z-score is inactive: 0.824.

GGACCUAGAGGACUAUAAATT against P3h2: the z-score was inactive: 0.894.

GGAACAGCUCAACACAAGATT against Adam11: the z-score is inactive: 1.81.

Take GGCUUUGAGUAUCAAAAUATT against Pfpl: the z-score is inactive: -0.58.

In the case of GGACCCUCCAGGUUACAUUTT against Ptpn18, the z-score is inactive: 0.529.

In the case of CCAAUACUACAUAAUGUCUTT against Abcc12, the z-score was inactive: -0.354.

As to CGUGUUCCGGUCGAGUACUTT against Wdr54, the z-score was inactive: -0.314.

As to GGCGGUCUUUAAGAUGCUCTT against Ubl7, the z-score was active: 2.12.

With GGAGGGUACUGUUAUUUUUTT against Defb9, the z-score is inactive: 1.

Consider GGCCAAGAUAGAUAAUAACTT against Zcchc7, for which the z-score was inactive: -1.08.

For the sequence CCAACUGGUAAUCUUCACATT against Olfr3, the z-score is inactive: -0.717.

Take GAGGCUGUCUGCUUCAUCCTT against Mrps12: the z-score is inactive: 0.701.

As for GCUUAUGUUGUUGUGCAUUTT against Zfyve21, the z-score was inactive: 0.362.

In the case of CCCGAACCUUAGUAAAUGUTT against Psmd8, the z-score is inactive: 0.308.

As for GCAGACUUUGUUUGACAACTT against Hip1, the z-score is inactive: 1.43.

With GCGGACACAUCGAGUUUUGTT against Epor, the z-score was inactive: 1.57.

As to GCAGCGUAAACAUUGUAACTT against Pkib, the z-score is inactive: -0.0994.

On to CCUGCUCAGAUCCACAGAATT against Usp17lc, for which the z-score was inactive: -1.98.

Take GGUACCAUUCAGCAAUAAGTT against Muc19: the z-score was inactive: -0.202.

On to GGUCAACCACAGCUACUGCTT against Pias4, for which the z-score is inactive: 0.913.

On to GGAUAUCGGGAUGAAAUUGTT against Meig1, for which the z-score was inactive: -0.482.

Turning to GGACCUCAUUGUUUAGUCATT against Cmya5, the z-score was inactive: -0.271.

In the case of GAUGUGUGCUCAUGGUUUUTT against Olfr622, the z-score is inactive: -0.711.

Regarding GGUCUCCAUGAGUUUGAUUTT against Pik3cd, the z-score was inactive: -0.0808.

Take GCAAUCAUUAAGCAGAUCATT against Prkce: the z-score was inactive: -1.35.

As for GGGCUUAAGGGUUUCUGUUTT against H3c8, the z-score was inactive: 0.864.

Consider GAUCUUACUCAGCAGACCUTT against Ifna2, for which the z-score was inactive: 0.0264.

Take GGCAACAGUUGGCUAUCUUTT against Entpd7: the z-score was inactive: -0.0483.

As to GGAGCAUGAGGAUUACUGUTT against Trafd1, the z-score was inactive: 0.731.

GCAGUUUGUUCAAAGUAGCTT against Pcdh17: the z-score was inactive: -0.339.

GGACUUCUCCAAUGACCUGTT against Creb3l1: the z-score is inactive: 0.638.

Turning to CCAGUGUGAAAUGAUCCUUTT against Hddc2, the z-score was inactive: -0.361.

GCAGGGAGACUCACAUUAATT against Trpa1: the z-score was inactive: 0.931.

Take GGUGAAGAUUGAGAAGGAGTT against Aifm3: the z-score is active: -2.05.

For CGACAUCAAAUACGGAUCUTT against Sdf2l1, the z-score was inactive: 0.919.

On to CCAUCCGUAACAUCGACUGTT against Mboat7, for which the z-score is inactive: -0.293.

With GCAGUAGAUCCUGAUUUUGTT against Cdh12, the z-score was inactive: -0.382.

As to GGAAAGGGACCAAUUCAGATT against Fv1, the z-score was inactive: -0.27.

Regarding CCCUGUACACACCUAAAAATT against Nus1, the z-score was inactive: -0.688.

GGUUUUAGUAUGUAGUGUUTT against Pxt1: the z-score is inactive: -0.164.

For CCUAUGAAGCAAUUUGAUCTT against Lnx2, the z-score was inactive: 1.04.

As for GCAUGAGACUAUGCACCUATT against Snca, the z-score is inactive: -0.448.

In the case of “GGAUCAUCACUACUACAAUTT against 4932415M13Rik”, the z-score is active: 2.37.

Turning to CCAGCUUAAUGAGUUCAUGTT against Abca7, the z-score is inactive: 1.94.

For GGAAACUGUAAGUGUCAAUTT against Pef1, the z-score is inactive: -1.26.

For the sequence GGAACCUUUUAUUCAAGAATT against Cmtm3, the z-score is inactive: 0.222.

Regarding GGAAGAUGGGAAGAAAUUCTT against Eif3g, the z-score was inactive: 0.108.

Regarding GGCAGUUCAAAAGACCACATT against Zcchc7, the z-score was active: 2.38.

CCUUUUUGGUACGAGACGCTT against Pik3r1: the z-score was inactive: -1.2.

As to GCACUUUUAAAUUAAGGUCTT against Casp12, the z-score was inactive: 0.0894.

For the sequence CCGAAUUCGUGUGAAACUGTT against Ablim2, the z-score is inactive: -0.433.

Take GGACAAGGAACAGAGCCUUTT against Rnf183: the z-score was inactive: -1.27.

Consider GGAUGUGGUCUGAAUUACCTT against Prkd1, for which the z-score was inactive: 0.00495.

As for GGUGUUACCCUCCUUAGAGTT against Tmem230, the z-score is inactive: -1.03.

Consider GGAUUAAUUAAUACUUGGCTT against Rps9, for which the z-score is inactive: 0.986.

As to CGUGCUUACAUAAUGGAAATT against Rnaseh1, the z-score is inactive: 0.231.

As for GGAUCAGAAUUCUUCCCAGTT against Pnrc2, the z-score was inactive: -0.805.

For GGACAACACAUUUGUGCUCTT against Sh2b2, the z-score is inactive: 0.209.

In the case of GGAGCUUUCAGCCUAAUUUTT against Cavin3, the z-score was inactive: -0.634.

As to GCCUUUGCGCAUAUGCUCUTT against Fancb, the z-score was inactive: 1.28.

Regarding GGUAAAUUCUUUAAGGGACTT against Asah1, the z-score was inactive: -0.0704.
